± gives the standard deviation of the averaged measurements. The list shows a part of the results, in another mix than the full data. Most values lie at the level of the controls, where differences are scatter.
Compound: Nc1ncnc2c1ncn2[C@@H]1O[C@H](COP(=O)(O)OP(=O)(O)OP(=O)(O)O)[C@@H](O)[C@H]1O [adenosine triphosphate]
Assay: NP40-soluble protein abundance relative to vehicle (solubility fold change) (ratio); higher = more soluble protein in presence of ATP
Summary of the method: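 Jurkat crude lysate prepared with a Dounce homogeniser was treated at eight concentrations spanning 0.1 to 10 mM, 10 min at room temperature then 3 min at 37 °C. Solubilisation with 0.8% NP40 and benzonase and ultracentrifugation preceded TMT labelling of the supernatant for LC-MS/MS. Fold change against the detergent-processed vehicle was determined per replicate from vsn-normalised intensities, across three independent experiments.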

By UniProt entry, the sequences of proteins in these tests, tags left out. Where a name states a change or a piece, a line headed by the entry shows the natural chain unless it says otherwise.
UniProt Q12873: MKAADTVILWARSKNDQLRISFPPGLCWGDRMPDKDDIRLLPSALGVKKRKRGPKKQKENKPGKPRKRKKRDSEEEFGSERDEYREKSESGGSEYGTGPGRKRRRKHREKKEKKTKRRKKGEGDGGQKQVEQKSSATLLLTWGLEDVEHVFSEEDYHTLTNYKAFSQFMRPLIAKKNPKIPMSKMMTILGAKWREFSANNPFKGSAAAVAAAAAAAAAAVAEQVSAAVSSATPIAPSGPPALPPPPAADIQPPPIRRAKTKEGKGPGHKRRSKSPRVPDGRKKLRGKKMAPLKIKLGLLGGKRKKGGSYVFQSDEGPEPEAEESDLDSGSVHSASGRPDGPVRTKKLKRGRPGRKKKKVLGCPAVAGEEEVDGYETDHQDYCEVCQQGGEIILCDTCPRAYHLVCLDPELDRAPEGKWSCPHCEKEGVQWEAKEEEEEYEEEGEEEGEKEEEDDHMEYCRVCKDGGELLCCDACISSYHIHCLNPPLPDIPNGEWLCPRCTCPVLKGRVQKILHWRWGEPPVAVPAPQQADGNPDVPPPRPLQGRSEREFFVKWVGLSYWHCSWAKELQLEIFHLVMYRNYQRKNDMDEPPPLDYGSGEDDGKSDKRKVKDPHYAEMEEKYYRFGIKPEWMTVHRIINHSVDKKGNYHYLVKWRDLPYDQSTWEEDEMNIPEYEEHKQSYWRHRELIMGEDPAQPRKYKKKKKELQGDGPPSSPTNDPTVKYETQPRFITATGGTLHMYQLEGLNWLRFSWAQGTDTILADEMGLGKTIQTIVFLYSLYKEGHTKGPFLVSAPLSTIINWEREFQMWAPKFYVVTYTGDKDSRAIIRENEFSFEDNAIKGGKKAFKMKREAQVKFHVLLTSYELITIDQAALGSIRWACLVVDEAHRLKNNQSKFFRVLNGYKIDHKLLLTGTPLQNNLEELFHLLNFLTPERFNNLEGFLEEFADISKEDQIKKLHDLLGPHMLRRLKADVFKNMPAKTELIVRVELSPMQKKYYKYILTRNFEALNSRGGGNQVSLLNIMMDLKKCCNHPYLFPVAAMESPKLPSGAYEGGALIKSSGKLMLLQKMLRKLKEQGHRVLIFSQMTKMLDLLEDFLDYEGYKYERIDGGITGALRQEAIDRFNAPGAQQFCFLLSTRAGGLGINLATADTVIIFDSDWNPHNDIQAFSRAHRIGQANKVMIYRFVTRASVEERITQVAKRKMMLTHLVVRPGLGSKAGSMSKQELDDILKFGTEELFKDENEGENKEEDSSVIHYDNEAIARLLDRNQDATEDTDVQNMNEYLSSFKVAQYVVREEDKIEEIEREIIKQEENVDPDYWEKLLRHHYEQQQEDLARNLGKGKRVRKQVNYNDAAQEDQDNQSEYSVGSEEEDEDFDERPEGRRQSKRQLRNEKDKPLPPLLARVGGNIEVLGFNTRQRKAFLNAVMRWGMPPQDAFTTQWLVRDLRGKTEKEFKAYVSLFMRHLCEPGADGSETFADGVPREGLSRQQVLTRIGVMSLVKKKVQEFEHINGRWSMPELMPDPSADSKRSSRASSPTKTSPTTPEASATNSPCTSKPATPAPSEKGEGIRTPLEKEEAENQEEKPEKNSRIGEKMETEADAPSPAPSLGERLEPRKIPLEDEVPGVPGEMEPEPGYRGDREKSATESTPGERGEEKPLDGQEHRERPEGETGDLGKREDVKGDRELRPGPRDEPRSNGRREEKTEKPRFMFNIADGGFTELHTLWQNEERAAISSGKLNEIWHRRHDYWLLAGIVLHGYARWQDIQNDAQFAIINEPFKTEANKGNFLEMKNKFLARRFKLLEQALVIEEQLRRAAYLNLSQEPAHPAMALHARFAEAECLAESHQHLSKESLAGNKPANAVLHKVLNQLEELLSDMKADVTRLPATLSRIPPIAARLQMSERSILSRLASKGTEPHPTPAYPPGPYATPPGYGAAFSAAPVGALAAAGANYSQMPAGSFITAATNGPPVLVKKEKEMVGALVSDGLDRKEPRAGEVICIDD
UniProt P14314: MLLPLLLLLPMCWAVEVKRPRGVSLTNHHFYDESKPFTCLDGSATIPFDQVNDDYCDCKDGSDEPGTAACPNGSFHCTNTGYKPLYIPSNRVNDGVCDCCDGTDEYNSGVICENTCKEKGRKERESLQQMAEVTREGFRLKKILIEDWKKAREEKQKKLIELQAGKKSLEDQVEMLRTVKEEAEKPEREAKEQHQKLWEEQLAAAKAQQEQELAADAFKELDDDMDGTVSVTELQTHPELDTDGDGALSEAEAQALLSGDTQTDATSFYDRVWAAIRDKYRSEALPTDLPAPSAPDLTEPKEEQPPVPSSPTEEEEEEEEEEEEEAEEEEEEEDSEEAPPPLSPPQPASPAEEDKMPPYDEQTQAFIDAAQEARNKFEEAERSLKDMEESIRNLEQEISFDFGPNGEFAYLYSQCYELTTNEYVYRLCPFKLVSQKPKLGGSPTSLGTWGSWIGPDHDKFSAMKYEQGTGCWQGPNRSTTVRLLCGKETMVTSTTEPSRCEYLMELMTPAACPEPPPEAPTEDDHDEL
UniProt P55039: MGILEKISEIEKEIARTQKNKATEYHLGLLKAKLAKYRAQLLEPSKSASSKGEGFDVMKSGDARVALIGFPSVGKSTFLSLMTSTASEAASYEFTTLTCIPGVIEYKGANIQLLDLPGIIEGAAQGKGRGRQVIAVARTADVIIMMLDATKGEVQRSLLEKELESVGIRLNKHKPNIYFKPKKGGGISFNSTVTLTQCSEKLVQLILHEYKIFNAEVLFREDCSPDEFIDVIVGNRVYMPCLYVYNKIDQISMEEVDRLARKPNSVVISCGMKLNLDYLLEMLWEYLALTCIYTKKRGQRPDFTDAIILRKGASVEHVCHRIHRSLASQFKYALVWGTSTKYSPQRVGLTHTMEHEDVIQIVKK
UniProt Q9HAH7: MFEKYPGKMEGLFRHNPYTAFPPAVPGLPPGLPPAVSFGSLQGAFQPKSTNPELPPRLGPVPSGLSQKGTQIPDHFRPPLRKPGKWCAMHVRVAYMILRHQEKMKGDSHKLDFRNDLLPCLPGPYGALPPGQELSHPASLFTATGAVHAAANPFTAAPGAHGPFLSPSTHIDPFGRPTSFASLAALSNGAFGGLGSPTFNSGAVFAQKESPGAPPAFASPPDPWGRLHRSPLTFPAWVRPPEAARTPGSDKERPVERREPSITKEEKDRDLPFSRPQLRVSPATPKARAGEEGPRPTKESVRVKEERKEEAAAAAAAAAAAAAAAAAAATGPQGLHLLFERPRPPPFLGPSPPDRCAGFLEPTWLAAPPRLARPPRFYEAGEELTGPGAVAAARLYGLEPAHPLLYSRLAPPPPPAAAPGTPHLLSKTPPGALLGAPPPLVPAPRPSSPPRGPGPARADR
UniProt Q9NP81: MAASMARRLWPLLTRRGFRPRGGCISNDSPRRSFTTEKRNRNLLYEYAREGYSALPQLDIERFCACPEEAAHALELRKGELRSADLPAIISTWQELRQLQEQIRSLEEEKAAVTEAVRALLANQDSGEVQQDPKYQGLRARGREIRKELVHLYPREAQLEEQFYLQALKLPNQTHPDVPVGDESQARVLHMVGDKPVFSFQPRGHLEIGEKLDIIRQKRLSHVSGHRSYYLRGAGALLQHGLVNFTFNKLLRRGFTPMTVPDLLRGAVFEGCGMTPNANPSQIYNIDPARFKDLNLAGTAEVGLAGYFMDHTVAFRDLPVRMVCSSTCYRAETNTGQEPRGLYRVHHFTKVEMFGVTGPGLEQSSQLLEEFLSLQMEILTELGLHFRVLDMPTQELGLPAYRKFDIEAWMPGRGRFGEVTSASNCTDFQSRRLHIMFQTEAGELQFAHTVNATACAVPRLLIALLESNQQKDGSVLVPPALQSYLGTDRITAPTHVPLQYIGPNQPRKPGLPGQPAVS
UniProt Q9BTW9: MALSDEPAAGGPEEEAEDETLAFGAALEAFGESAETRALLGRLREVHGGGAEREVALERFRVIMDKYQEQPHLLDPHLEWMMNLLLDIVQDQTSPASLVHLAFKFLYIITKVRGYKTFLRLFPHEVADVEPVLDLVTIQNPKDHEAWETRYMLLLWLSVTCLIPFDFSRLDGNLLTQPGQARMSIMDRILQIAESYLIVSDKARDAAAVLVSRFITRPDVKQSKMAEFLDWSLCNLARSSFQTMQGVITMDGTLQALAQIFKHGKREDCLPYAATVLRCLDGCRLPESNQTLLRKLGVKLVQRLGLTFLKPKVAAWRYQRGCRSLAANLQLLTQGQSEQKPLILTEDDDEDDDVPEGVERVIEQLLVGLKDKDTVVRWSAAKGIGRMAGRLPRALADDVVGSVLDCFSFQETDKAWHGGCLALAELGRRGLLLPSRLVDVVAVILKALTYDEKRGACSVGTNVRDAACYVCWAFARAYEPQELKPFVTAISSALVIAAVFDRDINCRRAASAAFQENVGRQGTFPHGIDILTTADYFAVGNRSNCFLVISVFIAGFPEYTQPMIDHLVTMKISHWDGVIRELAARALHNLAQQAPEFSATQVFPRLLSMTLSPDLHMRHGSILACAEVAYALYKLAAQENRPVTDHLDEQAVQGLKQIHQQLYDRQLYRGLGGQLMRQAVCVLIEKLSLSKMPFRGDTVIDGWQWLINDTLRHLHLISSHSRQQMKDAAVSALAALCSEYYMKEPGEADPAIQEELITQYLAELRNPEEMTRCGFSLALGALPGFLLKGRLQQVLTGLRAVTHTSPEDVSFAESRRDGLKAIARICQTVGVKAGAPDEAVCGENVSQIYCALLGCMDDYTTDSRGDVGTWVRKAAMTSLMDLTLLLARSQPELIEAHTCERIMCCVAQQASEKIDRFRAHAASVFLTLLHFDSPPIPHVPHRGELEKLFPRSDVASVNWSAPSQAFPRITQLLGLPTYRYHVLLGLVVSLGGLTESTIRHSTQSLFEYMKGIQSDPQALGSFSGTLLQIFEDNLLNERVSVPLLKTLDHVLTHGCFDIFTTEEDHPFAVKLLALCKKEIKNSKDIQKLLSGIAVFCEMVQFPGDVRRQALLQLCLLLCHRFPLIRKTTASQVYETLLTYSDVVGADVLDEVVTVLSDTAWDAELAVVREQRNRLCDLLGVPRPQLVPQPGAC
UniProt P20674, whole entry: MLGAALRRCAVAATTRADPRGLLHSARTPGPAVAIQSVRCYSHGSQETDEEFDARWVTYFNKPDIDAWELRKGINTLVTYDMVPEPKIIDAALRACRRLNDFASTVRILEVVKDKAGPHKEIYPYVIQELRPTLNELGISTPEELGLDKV
UniProt Q96ND0: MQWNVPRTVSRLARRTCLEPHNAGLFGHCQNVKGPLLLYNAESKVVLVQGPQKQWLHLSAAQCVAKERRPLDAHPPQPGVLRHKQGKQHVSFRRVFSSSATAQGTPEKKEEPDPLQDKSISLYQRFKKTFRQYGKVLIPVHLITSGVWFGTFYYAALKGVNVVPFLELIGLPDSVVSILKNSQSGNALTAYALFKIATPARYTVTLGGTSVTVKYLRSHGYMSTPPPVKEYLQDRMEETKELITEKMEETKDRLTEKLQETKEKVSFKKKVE
UniProt Q6AI12: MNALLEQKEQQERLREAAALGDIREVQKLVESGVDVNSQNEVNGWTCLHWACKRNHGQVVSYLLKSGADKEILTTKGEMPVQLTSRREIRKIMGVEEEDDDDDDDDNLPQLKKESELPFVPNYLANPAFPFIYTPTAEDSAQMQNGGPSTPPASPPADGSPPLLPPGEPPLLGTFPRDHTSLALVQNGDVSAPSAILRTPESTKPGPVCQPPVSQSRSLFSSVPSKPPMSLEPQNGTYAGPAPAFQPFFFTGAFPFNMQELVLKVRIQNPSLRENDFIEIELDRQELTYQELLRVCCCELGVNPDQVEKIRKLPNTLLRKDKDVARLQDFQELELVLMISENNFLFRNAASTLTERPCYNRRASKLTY
UniProt Q08722, whole entry: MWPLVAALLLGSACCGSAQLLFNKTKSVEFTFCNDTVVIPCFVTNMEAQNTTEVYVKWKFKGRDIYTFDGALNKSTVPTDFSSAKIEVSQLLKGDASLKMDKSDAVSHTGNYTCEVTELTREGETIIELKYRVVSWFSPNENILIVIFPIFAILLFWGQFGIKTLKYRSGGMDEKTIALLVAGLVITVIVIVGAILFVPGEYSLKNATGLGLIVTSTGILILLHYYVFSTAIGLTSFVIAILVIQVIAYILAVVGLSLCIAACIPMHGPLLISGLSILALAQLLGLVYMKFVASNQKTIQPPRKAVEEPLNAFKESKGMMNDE
UniProt Q13569: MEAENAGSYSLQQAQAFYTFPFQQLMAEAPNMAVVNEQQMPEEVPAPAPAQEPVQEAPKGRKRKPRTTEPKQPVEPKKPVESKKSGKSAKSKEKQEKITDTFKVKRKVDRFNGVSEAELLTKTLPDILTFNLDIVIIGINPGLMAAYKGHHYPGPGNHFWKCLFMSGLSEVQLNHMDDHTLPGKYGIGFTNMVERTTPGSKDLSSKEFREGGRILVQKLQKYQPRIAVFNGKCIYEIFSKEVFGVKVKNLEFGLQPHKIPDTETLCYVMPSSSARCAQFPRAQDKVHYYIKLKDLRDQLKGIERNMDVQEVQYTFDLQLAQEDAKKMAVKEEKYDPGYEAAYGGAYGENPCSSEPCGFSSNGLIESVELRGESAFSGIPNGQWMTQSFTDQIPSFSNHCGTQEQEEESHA

| Target | NP40-soluble protein abundance (concentration: 0.1mM) | NP40-soluble protein abundance (concentration: 0.5mM) |
| --- | --- | --- |
| J3QLB2 and related entries (UniProt Q8N1S5) | 0.966 ± 0.067 | 0.991 ± 0.026 |
| H7C3H7 and related entries (UniProt Q12873) | 1.09 ± 0.011 | 1.14 ± 0.059 |
| H0YJI2 and related entries (UniProt Q15643) | 0.978 ± 0.033 | 0.986 ± 0.034 |
| H3BRL0 and related entries (UniProt Q9BXC9) | 1.01 ± 0.018 | 0.937 ± 0.025 |
| K7ELL7 and related entries (UniProt P14314) | 0.974 ± 0.026 | 0.97 ± 0.053 |
| J3QKV7 and related entries (UniProt P55039) | 1.05 ± 0.078 | 1.06 ± 0.077 |
| H3BLT9 and related entries (UniProt Q7RTR2) | 1.1 ± 0.069 | 1.07 ± 0.047 |
| H0YGR4 and related entries (UniProt Q9Y3B8) | 0.945 ± 0.043 | 0.946 ± 0.081 |
| H0Y659 and related entries (UniProt Q7Z6Z7) | 0.998 ± 0.034 | 0.989 ± 0.034 |
| H0YLX2 and related entries (UniProt Q2KHR2) | 0.988 ± 0.051 | 0.955 ± 0.019 |
| H3BPU4 and related entries (UniProt Q9UGJ1) | 1.03 ± 0.011 | 1.13 ± 0.14 |
| J3KNZ9 (UniProt Q9HAH7) | 1.05 ± 0.08 | 1.09 ± 0.22 |
| M0QWZ7 and related entries (UniProt Q9NP81) | 1.03 ± 0.084 | 1.03 ± 0.064 |
| J3KR97 and related entries (UniProt Q9BTW9) | 1.02 ± 0.079 | 0.988 ± 0.022 |
| H0Y997 and related entries (UniProt Q96J42) | 0.915 ± 0.03 | 0.849 ± 0.15 |
| H0YMI4 and related entries (UniProt Q9Y6I4) | 1 ± 0.053 | 0.96 ± 0.032 |
| H0Y9X1 and related entries (UniProt Q96EY4) | 0.905 ± 0.055 | 0.907 ± 0.046 |
| H3BNX8 and related entries (UniProt P20674) | 0.953 ± 0.07 | 0.897 ± 0.092 |
| H0Y8C3 and related entries (UniProt Q9NZJ7) | 1.01 ± 0.1 | 0.908 ± 0.12 |
| K7EIY4 and related entries (UniProt O60499) | 0.981 ± 0.041 | 0.975 ± 0.06 |
| K7EK00 and related entries (UniProt Q96ND0) | 0.904 ± 0.038 | 0.913 ± 0.039 |
| K7ERW4 and related entries (UniProt Q6AI12) | 0.986 ± 0.24 | 0.986 ± 0.23 |
| H0YEU4 and related entries (UniProt Q03164) | 1.02 ± 0.023 | 1.07 ± 0.047 |
| H0YC40 and related entries (UniProt Q08722) | 0.907 ± 0.032 | 0.866 ± 0.086 |
| G8JL98 and related entries (UniProt Q13569) | 1.01 ± 0.029 | 1.06 ± 0.058 |

Part of the list above, as labelled records.
K7EK00 and related entries (UniProt Q96ND0)
  NP40-soluble protein abundance (concentration: 0.1mM): 0.904 ± 0.038; NP40-soluble protein abundance (concentration: 0.5mM): 0.913 ± 0.039
K7ERW4 and related entries (UniProt Q6AI12)
  NP40-soluble protein abundance (concentration: 0.1mM): 0.986 ± 0.24; NP40-soluble protein abundance (concentration: 0.5mM): 0.986 ± 0.23
